In article PMC13233068, “HSD17B7 is required for the function of sensory hair cells by regulating cholesterol synthesis” (eLife, 2026):
These are yes or no findings as the source states them, for the method shown. Tags and fused reporters may be left off the sequences shown.

Target: T1, HSD17B7^E182* (GST fusion surmised) in the in vitro binding assay (human) (UniProt P56937)
T1 sequence: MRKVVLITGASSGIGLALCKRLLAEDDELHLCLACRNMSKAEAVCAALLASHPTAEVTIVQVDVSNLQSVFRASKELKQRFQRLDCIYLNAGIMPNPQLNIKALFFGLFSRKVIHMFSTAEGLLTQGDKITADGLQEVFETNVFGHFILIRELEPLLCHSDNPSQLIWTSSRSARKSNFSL
Assay: pull-down; GST and GST-HSD17B7 immobilised on GSH resin, incubated with purified His-RER1 overnight at 4°C, washed with 0.3% PBST; Coomassie staining and western blot; both purified

B1: RER1-His (natural protein, human (cDNA from HEK293T), UniProt O15258 1-196, looked up)
chain: MSEGDSVGESVHGKPSVVYRFFTRLGQIYQSWLDKSTPYTAVRWVVTLGLSFVYMIRVYLLQGWYIVTYALGIYHLNLFIAFLSPKVDPSLMEDSDDGPSLPTKQNEEFRPFIRRLPEFKFWHAATKGILVAMVCTFFDAFNVPVFWPILVMYFIMLFCITMKRQIKHMIKYRYIPFTHGKRRYRGKEDAGKAFAS
notes: RER1, full-length cDNA amplified from HEK293T cDNA; The legend prints RER1-His, the methods His-RER1; the pET-23b vector would add a C-terminal His tag (surmised); Detected by immunoblot of the His tag; also called His-RER1; ER retention receptor RER1
- binding: no binding
